The whole screen tested about 220,000 compounds, of which about 770 (0.35%) were called active. The inconclusive results got no clear call from the source; some entries with a clear call stand among them for comparison. Rule as the data show it: active = binding response below about 49% or above about 150%; inconclusive = no clear call, values can overlap the other calls; inactive = in between.
Target: Guanine nucleotide-binding protein G(o) subunit alpha (Homo sapiens) (UniProt P09471)
Experiment: RGS7-Galphao binding modulators, primary screen, biochemical, multiplexed bead flow cytometry (AID 1439);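 also: fluorescent Galphao held in activated GDP-AlF4 state binding bead-coupled RGS7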
Conditions: at 10 µM, actives lie on both sides

The chains behind the UniProt entries cited, without tags or fusion partners.
UniProt P09471, whole entry, looked up: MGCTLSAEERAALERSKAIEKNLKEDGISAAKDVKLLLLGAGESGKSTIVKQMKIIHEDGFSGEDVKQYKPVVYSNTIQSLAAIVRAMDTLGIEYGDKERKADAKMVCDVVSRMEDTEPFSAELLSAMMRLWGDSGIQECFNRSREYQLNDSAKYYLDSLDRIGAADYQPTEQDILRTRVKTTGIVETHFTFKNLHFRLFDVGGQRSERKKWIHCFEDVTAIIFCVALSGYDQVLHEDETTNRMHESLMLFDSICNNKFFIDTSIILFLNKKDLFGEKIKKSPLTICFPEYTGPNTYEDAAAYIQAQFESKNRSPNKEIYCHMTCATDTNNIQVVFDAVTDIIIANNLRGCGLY

Row | Compound | binding response (% of control)
1 | CCCc1nc(SCC(=O)c2ccc(F)cc2)c2ccccc2n1 | inactive: 103%
2 | CSc1nnc(CSc2cc(C)nc(N(C)C)n2)o1 | inactive: 111%
3 | CC(=O)Nc1ccc(/C=N/NS(=O)(=O)c2cc(C)ccc2C)cc1 | inconclusive: 106%
4 | O=c1[nH]nc(-c2ccc(F)cc2)cc1Cc1ccccc1 | inconclusive: 107%
5 | O=C(O)Cc1sc(-c2ccccc2)nc1-c1cccs1 | inconclusive: 94.8%
6 | O=C(CSc1nc2ccccc2s1)Nc1cc(S(=O)(=O)N2CCOCC2)ccc1O | inactive: 91.3%
7 | COc1ccc(C2/C=C\CN(C(=O)Nc3ccccc3-c3ccccc3)CC(=O)N2Cc2ccc(F)cc2)cc1 (stereo not given) | inconclusive: 95.3%
8 | COc1ccc(C2C3C=CCC(c4cccc(-c5ccc(C)cc5)c4)C3C(=O)N2Cc2ccccc2)cc1Cl (stereo not given) | inconclusive: 94.4%
9 | Cc1cccc(S(=O)(=O)NCCc2ccccc2)c1 | inconclusive: 80.2%
10 | CCCn1c(=O)c(C#N)cn(C2CC2)c1=O | inconclusive: 109%
11 | CSc1n[nH]c(NC(=O)c2c(-c3c(Cl)cccc3Cl)noc2C)n1 | inconclusive: 117%
12 | CCN1C(=O)/C(=C\N2CCCCCC2)SC1=S | inactive: 103%
13 | COc1ccc(S(=O)(=O)CCc2nnc(NC(C)=O)s2)cc1 | inconclusive: 87.9%
14 | CCC1(C)Cc2nc(Cl)c(C#N)cc2CO1 (stereo not given) | inconclusive: 100%
15 | Cc1cc(NC(=O)NN2CCOCC2)nn1-c1c(Cl)cc(Cl)cc1Cl | inconclusive: 103%
16 | C=CCn1c(SCC(=O)C23CC4CC(CC(C4)C2)C3)nc(O)cc1=O | inconclusive: 146%
17 | Cc1[nH]c(=O)[nH]c(=O)c1CSCC(=O)OCC(=O)c1ccc(Br)cc1 | inactive: 96.5%
18 | CC(c1ccon1)N(C)Cc1cn(Cc2ccccc2)nc1-c1ccc2c(c1)OCO2 (stereo not given) | inactive: 104%
19 | CCOc1cc(CNCc2cccnc2)ccc1OCC(=O)NC(C)(C)C | inconclusive: 123%
20 | Nc1nc(-c2ccc3c(c2)CCO3)cs1 | inactive: 109%
21 | COc1ccc(Nc2nc3nonc3nc2N2CCCCC2)cc1 | inconclusive: 105%
22 | CCOc1cc(/C=N/n2cnnc2)ccc1OS(=O)(=O)c1ccc(C)cc1 | inconclusive: 90.3%
23 | CCn1c(SCc2nc3cc(OC)c(OC)cc3c(=O)[nH]2)nc2ccccc21 | inconclusive: 104%

Row | Compound | binding response (% of control)
24 | CN(CCC#N)Cc1cc(=O)oc2ccc3ccccc3c12 | inconclusive: 71.5%
25 | O=C(Nc1ccc(Oc2ncnc3cc(Cl)ccc23)nc1)c1cccs1 | inconclusive: 84.7%
26 | COc1ccc(-c2cccc(C3CC=CC4C3C(=O)N(Cc3ccccc3)C4c3ccc(C(F)(F)F)cc3)c2)cc1 (stereo not given) | inconclusive: 98%
27 | CC(NCC(=O)Nc1cc(S(=O)(=O)N2CCCCCC2)ccc1Cl)c1ccccc1 (stereo not given) | inconclusive: 129%
28 | O=C(Nc1cccc(-c2csc(Nc3ccc(Cl)cc3)n2)c1)c1cc([N+](=O)[O-])cc(C(F)(F)F)c1 | inconclusive: 89.5%
29 | CC(=O)Nc1ccc(C(=O)OCC(=O)N(C)C2CCCCC2)cc1 | inconclusive: 107%
30 | CC(=O)c1cc2c(cc1NC(=O)c1ccc(C)cc1)OCO2 | inactive: 104%
31 | N#Cc1c(-c2ccccc2)nc(N2CCOCC2)[nH]c1=O | inactive: 103%
32 | O=C(CCl)NCCNC(=O)c1cc(OCC(F)(F)F)ccc1OCC(F)(F)F | inconclusive: 80%
33 | Cc1ccc(-c2nnn(CC(=O)N3CCCCC3)n2)o1 | inactive: 104%
34 | O=C(N/N=C1\CC(c2ccccc2)Oc2ccccc21)c1cccnc1 (stereo not given) | inconclusive: 111%
35 | CN(C(=O)c1ccc(C#N)cc1)c1nnc(-c2ccccn2)s1 | inactive: 103%
36 | CCCC(=O)OCC(=O)Nc1ccc([N+](=O)[O-])cc1C#N | inconclusive: 69.2%
37 | COc1ccc(OC)c(NC(=O)CSc2nnc(CNC(=O)COc3ccc(Cl)cc3)o2)c1 | active: 159% [activator]
38 | CC(C)c1nnc(NC(=O)CCC(=O)NC2CCCCC2)s1 | inconclusive: 117%
39 | CCOC(=O)/C(C#N)=N/Nc1c(S(=O)(=O)Cc2ccco2)csc1C(=O)OC | inconclusive: 120%
40 | C/C(=N\NC(=S)NCc1ccccc1)c1ccc2ccccc2c1OC(F)F | inactive: 97.5%
41 | CN(C)C=NC(=O)c1cc(C(=O)c2ccccc2Cl)c[nH]1 | inconclusive: 114%
42 | CCc1cc2c3c(c1)C(C)CC(C)(C)N3C(=O)/C2=C1\SC(=O)NC1=O (stereo not given) | inconclusive: 91.9%
43 | CC(=O)N1CCC2(CC1)C(C#N)=C(N)OC1=C2C(=O)CC(C)(C)C1 | inactive: 109%
44 | O=[N+]([O-])c1cccc(-c2nnc(C3CC3)o2)c1 | inconclusive: -44.9%
45 | Cc1ccc(-c2ccc([C@H]3[C@H]4C=CC[C@@H](C)[C@@H]4C(=O)N3Cc3ccccc3)c(F)c2)cc1 | inconclusive: 119%

Three entries drawn at random from the list so far, as already listed:
Row | Compound | binding response (% of control)
39 | CCOC(=O)/C(C#N)=N/Nc1c(S(=O)(=O)Cc2ccco2)csc1C(=O)OC | inconclusive: 120%
10 | CCCn1c(=O)c(C#N)cn(C2CC2)c1=O | inconclusive: 109%
27 | CC(NCC(=O)Nc1cc(S(=O)(=O)N2CCCCCC2)ccc1Cl)c1ccccc1 (stereo not given) | inconclusive: 129%

— PubChem BioAssay AID1439 (NMMLSC, 2008)
